Measurements as given in publication doi:10.1101/2022.03.07.483334.
Results are given in words; binding and its absence hold for the method and conditions named. Binding seen in cells or lysates may run through a third protein. Binding calls can cover weak binding; strength is not graded here.

Protein sequences, listed by entry. Tags and fused reporters are not part of them. Lines headed by an entry give the natural chain unless they say otherwise; changes in a name come on top.
UniProt Q01196: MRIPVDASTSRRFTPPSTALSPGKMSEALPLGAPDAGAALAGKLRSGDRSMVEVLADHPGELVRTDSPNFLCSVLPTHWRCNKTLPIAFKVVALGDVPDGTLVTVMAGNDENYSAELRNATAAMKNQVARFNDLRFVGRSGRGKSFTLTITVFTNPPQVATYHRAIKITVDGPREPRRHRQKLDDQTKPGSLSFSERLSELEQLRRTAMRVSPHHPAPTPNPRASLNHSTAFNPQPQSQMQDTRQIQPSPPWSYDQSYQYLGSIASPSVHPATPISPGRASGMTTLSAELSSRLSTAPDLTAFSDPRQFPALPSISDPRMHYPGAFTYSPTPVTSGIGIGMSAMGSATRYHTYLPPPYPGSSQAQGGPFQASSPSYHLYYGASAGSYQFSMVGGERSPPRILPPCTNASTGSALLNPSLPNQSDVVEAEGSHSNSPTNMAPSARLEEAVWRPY
UniProt P61244: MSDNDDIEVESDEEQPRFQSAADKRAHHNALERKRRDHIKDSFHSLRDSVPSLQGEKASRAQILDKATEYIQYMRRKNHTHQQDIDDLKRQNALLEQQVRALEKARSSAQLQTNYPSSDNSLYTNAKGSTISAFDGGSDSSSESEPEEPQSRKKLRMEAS

Molecular target: HA-tagged RUNX1A (doxycycline-inducible, in K562 cells) (human) (UniProt Q01196)
Test: co-IP

binding: binds
Substance: MAX (in K562 cells) (from UniProt P61244 1-160)
